Test results taken from paper PMC12063664.
The exact form of at least one protein or probe is not confirmed. For part of these data: Negatives hold for the conditions tested. For part of these data: Protein sequences can lack the tags named with them.

Legend:
[1] = system: NbARF18La-His-SUMO (Nicotiana benthamiana); test: competition with a labelled probe; settings: 10-, 20-, 50-fold excess over N4; EMSA: about 300 ng fusion protein with 30 ng biotin-labeled probe, Beyotime chemiluminescent EMSA kit; pH and temperature not stated; recombinant protein; protein details: His-SUMO (pET28a-SUMO)
[2] = biological target: T1, NbARF18Lb-MBP (Nicotiana benthamiana) (UniProt A0A1U7X7H4); test: competition with a labelled probe; settings: 10-, 20-, 50-fold excess over N4, reduced binding; EMSA: about 300 ng fusion protein with 30 ng biotin-labeled probe, Beyotime chemiluminescent EMSA kit; pH and temperature not stated; recombinant protein; protein details: MBP (pMAL-c5x)
T1 sequence (looked up, limits assumed): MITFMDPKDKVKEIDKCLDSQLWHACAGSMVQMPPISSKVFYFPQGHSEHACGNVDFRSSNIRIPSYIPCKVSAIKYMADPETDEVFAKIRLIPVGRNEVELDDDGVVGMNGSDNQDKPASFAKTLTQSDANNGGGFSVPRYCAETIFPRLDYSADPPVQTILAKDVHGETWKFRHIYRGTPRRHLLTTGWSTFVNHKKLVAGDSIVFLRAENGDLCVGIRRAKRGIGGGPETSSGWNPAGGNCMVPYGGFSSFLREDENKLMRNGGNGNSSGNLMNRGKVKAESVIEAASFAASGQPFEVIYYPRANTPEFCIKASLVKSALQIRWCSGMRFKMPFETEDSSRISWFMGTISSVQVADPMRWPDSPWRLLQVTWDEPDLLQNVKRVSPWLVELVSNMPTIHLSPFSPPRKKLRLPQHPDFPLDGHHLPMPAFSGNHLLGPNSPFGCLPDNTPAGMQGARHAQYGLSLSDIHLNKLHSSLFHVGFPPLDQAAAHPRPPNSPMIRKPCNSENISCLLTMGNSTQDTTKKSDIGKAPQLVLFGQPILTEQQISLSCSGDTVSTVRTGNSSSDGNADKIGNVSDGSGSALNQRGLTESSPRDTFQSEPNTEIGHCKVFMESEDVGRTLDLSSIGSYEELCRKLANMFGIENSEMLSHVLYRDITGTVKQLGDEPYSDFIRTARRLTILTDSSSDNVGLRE

[3] = system: NbARF18La-His-SUMO (Nicotiana benthamiana); test: EMSA; settings: EMSA: about 300 ng fusion protein with 30 ng biotin-labeled probe, Beyotime chemiluminescent EMSA kit; pH and temperature not stated; recombinant protein; protein details: His-SUMO (pET28a-SUMO); label: biotin
[4] = biological target: T1, NbARF18Lb-MBP (Nicotiana benthamiana); test: EMSA; settings: EMSA: about 300 ng fusion protein with 30 ng biotin-labeled probe, Beyotime chemiluminescent EMSA kit; pH and temperature not stated; recombinant protein; protein details: MBP (pMAL-c5x); label: biotin
[5] = system: NbMYB42-GST (Nicotiana benthamiana); test: competition with a labelled probe; settings: 10-, 20-, 50-fold excess over N1, shifted band gradually disappeared; EMSA: about 300 ng fusion protein with 30 ng biotin-labeled probe, Beyotime chemiluminescent EMSA kit; pH and temperature not stated; recombinant protein; protein details: GST (pGEX-6P-1)
[6] = system: NbMYB42-GST (Nicotiana benthamiana); test: EMSA; settings: EMSA: about 300 ng fusion protein with 30 ng biotin-labeled probe, Beyotime chemiluminescent EMSA kit; pH and temperature not stated; recombinant protein; protein details: GST (pGEX-6P-1); label: biotin

Sequence	binding result [3]	binding result [4]	binding result [6]	further results
GGACAATTTTTCTTTATTTTCTTTTTTGTCTCCAGTAAAATAACG (double strand) [NbMYB42 promoter P2 unlabeled competitor]				binding result [1]: binds; binding result [2]: binds
GGACAATTTTTCTTTATTTTCTTTTTAAAAAACAGTAAAATAACG (double strand) [NbMYB42 promoter P2 mutant probe]	no binding	no binding		
GGACAATTTTTCTTTATTTTCTTTTTTGTCTCCAGTAAAATAACG (double strand) [NbMYB42 promoter P2 probe]	binds	binds		
GTGAGGGTTGAAGGGTGGTTGTTGAGAGGAAGCCCGCTTACTTTTTTTGG (double strand) [NbPAL6 promoter P3 unlabeled competitor]				binding result [5]: binds
GTGAGGGTTGAAGAAAAAAAAAAAAAAAAAAGCCCGCTTACTTTTTTTGG (double strand) [NbPAL6 promoter P3 mutant probe (mProbe)]			no binding	
GTGAGGGTTGAAGGGTGGTTGTTGAGAGGAAGCCCGCTTACTTTTTTTGG (double strand) [NbPAL6 promoter P3 probe]			binds	
